Article doi:10.1101/2020.01.31.928440
These are yes or no findings as the source states them, for the method shown. Some results given as binding are weak or reduced against the parent protein; the word gives no strength.

Assays:
[1] = biological target: T1, Ist2 full length cytosolic tail (aa 590-878) (yeast (S. cerevisiae)) (UniProt P38250); assay: two-hybrid
T1 sequence: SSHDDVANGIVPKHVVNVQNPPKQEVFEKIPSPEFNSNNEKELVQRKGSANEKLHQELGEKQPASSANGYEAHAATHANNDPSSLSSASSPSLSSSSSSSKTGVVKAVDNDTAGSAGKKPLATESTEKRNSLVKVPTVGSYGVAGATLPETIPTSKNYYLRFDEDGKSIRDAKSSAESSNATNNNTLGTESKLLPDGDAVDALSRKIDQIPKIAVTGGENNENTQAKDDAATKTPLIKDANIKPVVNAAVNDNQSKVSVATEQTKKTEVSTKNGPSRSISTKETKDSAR

[2] = biological target: T2, Ist2 fragment aa 729-747 (yeast (S. cerevisiae)) (UniProt P38250); assay: two-hybrid
T2 sequence: SYGVAGATLPETIPTSKNY

B1: Osh7 (two-hybrid prey) (protein, UniProt P38755 1-437)
chain: MALNKLKNIPSLTNSSHSSINGIASNAANSKPSGADTDDIDENDESGQSILLNIISQLKPGCDLSRITLPTFILEKKSMLERITNQLQFPDVLLEAHSNKDGLQRFVKVVAWYLAGWHIGPRAVKKPLNPILGEHFTAYWDLPNKQQAFYIAEQTSHHPPESAYFYMIPESNIRVDGVVVPKSKFLGNSSAAMMEGLTVLQFLDIKDANGKPEKYTLSQPNVYARGILFGKMRIELGDHMVIMGPKYQVDIEFKTKGFISGTYDAIEGTIKDYDGKEYYQISGKWNDIMYIKDLREKSSKKTVLFDTHQHFPLAPKVRPLEEQGEYESRRLWKKVTDALAVRDHEVATEEKFQIENRQRELAKKRAEDGVEFHSKLFRRAEPGEDLDYYIYKHIPEGTDKHEEQIRSILETAPILPGQTFTEKFSIPAYKKHGIQKN
binding [1]: binds
binding [2]: binds
